The list shows a part of the results.
Assays:
Test in all cases: log2 fold change, soluble protein after heating vs DMSO (PISA); higher = thermal stabilisation; K562 cells, 10 uM, 30 min; active = over 0.2 and 3.5 SD of the protein, either way, in both replicates (recomputed)
[1] = compound: COC1=CC=C(C=C1)CN2C=CC3=C2C=C(C=C3)C(=O)NO
Summary of the method: (§1)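 K562 cells at 2×10^6 cells/mL were given 10 μM compound for 30 min. Aliquots then went through 3 min of heating across 48°C-58°C, were pooled, and were extracted in PBS with 0.5% NP-40 at 4°C, and the supernatant after 21,000xg for 90 min was quantified by TMTpro 16plex LC-MS/MS with channel sums equalised. Thermal stability relative to control samples, from duplicates, is given as log2 fold change.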

Protein sequences, listed by entry. Tags and fused reporters are not part of them. Lines headed by an entry give the natural chain unless they say otherwise; changes in a name come on top.
UniProt P39059: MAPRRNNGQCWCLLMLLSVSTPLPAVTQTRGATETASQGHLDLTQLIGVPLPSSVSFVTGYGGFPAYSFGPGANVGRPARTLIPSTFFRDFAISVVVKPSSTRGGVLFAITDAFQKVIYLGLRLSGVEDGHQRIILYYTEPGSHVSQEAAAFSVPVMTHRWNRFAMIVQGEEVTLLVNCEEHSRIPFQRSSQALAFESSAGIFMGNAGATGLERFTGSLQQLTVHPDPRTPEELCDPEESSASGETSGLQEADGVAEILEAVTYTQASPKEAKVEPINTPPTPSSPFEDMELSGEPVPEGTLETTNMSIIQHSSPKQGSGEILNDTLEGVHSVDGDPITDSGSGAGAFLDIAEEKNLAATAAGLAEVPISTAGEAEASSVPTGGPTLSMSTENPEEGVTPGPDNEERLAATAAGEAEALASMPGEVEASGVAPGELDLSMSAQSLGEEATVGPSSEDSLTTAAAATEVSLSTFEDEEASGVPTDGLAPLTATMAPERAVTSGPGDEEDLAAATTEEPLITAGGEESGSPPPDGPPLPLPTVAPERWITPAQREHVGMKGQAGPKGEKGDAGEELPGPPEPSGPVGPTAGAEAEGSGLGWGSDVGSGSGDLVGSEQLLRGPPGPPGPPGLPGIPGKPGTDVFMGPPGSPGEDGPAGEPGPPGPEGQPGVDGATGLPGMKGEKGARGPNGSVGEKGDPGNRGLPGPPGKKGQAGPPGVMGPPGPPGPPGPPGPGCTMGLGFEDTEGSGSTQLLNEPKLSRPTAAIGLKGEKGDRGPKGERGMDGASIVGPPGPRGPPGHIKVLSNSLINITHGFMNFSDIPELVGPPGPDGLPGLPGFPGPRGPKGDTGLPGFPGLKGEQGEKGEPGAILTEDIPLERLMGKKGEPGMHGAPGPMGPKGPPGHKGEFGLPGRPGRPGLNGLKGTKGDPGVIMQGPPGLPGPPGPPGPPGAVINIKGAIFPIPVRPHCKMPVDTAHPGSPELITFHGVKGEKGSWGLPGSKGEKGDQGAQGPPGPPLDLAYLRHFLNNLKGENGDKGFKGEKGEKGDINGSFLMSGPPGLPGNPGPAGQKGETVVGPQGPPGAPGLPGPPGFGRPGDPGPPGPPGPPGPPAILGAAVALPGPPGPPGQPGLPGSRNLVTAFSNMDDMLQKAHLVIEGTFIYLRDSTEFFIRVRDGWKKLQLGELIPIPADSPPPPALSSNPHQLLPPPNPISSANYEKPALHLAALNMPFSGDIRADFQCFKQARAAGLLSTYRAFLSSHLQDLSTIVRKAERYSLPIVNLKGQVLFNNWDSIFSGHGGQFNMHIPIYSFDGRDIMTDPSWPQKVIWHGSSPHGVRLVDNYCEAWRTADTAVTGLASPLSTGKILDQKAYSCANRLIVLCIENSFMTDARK
UniProt Q16740, whole entry, looked up: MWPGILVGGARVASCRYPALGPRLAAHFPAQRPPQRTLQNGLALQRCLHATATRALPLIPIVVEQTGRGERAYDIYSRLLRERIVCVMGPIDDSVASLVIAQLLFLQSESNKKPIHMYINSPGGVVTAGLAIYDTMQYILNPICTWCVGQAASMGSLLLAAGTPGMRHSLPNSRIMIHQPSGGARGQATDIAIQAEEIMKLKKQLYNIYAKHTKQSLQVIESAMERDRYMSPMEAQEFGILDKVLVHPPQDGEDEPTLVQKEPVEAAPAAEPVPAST
UniProt P09496: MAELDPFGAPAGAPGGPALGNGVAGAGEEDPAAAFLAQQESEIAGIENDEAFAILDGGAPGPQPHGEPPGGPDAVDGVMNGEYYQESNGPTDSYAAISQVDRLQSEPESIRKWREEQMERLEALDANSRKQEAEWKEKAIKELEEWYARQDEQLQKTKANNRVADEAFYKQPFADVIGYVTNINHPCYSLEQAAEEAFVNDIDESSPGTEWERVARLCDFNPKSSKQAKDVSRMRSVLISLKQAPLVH
UniProt P09497: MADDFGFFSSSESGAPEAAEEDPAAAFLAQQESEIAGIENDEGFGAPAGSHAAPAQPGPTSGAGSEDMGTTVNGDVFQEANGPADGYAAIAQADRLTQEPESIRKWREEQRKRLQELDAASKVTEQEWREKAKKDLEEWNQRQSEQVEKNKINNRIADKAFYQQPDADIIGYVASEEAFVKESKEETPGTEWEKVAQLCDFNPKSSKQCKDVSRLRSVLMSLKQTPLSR
UniProt Q86X95: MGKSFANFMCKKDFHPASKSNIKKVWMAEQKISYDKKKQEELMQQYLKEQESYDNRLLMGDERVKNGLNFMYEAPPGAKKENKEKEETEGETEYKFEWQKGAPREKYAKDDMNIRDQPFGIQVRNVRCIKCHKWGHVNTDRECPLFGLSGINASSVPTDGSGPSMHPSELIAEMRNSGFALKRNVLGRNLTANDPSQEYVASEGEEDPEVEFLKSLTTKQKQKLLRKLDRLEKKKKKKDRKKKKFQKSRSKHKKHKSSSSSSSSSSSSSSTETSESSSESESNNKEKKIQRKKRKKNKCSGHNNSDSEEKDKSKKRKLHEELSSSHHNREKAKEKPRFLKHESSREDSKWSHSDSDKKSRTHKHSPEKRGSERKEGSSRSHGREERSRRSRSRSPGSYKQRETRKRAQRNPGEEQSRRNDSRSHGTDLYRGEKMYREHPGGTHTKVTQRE
UniProt Q9Y4C5: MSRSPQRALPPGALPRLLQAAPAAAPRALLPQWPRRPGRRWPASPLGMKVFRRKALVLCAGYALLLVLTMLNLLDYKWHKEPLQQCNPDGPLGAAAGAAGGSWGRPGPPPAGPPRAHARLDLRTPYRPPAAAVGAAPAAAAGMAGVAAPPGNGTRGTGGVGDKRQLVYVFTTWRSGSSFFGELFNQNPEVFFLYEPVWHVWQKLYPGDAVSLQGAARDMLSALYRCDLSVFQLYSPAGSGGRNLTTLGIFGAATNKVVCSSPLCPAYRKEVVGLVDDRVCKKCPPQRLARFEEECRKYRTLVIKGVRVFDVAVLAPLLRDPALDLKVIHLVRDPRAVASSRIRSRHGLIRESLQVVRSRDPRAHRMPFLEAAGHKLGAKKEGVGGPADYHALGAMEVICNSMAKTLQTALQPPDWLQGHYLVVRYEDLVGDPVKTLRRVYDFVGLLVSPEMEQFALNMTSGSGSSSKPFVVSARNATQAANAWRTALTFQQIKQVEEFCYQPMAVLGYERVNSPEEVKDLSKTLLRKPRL
UniProt Q9NX76: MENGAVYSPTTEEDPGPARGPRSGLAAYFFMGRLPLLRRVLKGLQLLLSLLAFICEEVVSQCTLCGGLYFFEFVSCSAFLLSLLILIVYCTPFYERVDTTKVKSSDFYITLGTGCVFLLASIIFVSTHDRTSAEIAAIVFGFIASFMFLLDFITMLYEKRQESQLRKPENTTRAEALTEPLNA
UniProt O75122: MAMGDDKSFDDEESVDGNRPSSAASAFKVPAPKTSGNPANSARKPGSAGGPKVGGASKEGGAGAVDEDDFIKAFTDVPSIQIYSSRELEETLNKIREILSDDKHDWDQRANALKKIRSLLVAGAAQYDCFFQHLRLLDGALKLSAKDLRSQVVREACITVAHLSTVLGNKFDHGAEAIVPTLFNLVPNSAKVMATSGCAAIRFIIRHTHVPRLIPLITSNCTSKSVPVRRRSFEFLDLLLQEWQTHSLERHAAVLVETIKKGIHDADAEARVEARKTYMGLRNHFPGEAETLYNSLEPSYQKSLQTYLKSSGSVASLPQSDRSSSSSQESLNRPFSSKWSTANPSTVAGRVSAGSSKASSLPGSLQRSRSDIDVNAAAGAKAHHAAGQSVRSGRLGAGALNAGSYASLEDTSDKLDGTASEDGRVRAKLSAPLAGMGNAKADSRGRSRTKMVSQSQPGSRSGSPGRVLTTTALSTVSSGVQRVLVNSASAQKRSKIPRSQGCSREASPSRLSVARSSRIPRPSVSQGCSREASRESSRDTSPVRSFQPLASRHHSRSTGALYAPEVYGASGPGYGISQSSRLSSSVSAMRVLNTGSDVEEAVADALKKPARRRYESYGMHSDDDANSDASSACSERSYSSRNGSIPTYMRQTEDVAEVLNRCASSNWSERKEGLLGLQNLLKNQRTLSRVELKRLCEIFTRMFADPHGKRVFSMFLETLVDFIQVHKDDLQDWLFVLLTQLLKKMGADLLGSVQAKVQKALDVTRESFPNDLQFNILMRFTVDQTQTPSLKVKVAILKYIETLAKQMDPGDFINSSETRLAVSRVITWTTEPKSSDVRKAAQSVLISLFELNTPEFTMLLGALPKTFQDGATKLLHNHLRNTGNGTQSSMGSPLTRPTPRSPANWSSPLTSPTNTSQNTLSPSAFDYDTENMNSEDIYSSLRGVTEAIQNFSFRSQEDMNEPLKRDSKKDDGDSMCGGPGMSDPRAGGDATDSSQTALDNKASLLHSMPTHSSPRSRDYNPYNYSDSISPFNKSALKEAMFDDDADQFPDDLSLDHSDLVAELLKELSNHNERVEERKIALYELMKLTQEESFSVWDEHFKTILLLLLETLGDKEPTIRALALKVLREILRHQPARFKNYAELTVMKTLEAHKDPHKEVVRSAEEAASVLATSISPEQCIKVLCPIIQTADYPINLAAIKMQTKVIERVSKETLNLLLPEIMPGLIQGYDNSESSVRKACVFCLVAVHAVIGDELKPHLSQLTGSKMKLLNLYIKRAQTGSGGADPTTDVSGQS
UniProt Q9P003: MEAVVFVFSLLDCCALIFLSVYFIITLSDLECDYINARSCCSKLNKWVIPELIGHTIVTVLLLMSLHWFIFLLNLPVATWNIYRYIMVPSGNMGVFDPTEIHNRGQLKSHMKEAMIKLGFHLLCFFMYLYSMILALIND
UniProt Q96KA5: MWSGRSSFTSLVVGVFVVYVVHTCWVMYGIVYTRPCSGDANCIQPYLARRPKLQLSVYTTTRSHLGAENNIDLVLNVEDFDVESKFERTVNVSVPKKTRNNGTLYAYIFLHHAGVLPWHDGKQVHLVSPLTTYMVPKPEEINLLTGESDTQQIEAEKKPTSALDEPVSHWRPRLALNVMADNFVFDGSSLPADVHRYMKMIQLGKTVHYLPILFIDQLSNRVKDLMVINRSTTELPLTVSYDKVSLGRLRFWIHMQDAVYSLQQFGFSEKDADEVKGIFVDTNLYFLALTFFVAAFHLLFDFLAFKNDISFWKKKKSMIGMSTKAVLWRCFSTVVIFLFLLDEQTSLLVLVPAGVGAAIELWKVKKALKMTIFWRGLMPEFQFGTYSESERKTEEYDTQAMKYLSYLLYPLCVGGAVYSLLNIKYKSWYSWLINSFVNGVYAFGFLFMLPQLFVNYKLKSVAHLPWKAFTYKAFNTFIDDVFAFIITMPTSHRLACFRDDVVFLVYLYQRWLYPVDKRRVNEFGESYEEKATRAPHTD
UniProt O75153: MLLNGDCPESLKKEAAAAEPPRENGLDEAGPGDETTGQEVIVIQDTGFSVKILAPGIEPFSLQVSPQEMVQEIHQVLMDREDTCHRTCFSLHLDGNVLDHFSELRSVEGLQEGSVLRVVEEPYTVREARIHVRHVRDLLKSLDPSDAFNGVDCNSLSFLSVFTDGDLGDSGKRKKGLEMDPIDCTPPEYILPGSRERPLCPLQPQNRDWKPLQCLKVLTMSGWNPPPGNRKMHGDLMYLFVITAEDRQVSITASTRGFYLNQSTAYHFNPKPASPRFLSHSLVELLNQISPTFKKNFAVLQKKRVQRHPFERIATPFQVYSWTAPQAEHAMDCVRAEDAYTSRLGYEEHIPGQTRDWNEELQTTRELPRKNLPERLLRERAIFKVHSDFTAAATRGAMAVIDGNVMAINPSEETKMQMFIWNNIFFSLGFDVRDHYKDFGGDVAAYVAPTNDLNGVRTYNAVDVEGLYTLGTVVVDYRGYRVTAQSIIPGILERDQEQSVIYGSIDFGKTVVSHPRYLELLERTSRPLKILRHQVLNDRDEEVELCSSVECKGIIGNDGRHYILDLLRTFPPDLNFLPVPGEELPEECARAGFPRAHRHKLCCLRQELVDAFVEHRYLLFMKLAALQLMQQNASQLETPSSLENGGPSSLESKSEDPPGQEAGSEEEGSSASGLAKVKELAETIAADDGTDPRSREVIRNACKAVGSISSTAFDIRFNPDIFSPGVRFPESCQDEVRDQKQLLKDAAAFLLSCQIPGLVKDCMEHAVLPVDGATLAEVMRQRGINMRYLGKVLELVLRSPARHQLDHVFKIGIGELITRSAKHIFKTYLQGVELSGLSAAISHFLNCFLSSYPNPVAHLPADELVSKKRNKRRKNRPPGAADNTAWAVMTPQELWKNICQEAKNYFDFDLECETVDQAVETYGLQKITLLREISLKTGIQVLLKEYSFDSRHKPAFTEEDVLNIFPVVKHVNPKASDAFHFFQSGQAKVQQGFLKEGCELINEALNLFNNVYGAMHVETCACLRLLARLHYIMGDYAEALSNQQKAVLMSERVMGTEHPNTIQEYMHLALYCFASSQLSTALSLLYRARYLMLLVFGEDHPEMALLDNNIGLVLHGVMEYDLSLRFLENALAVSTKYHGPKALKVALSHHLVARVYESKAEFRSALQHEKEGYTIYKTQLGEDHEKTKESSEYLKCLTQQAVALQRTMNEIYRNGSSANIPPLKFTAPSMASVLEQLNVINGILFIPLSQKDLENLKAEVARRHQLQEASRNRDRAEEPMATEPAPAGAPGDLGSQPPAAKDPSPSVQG

[2] = compound: CON(C)C(=O)N1N=C(c2cc(F)ccc2F)S[C@@]1(CCCN)c1ccccc1 [filanesib]
Summary of the method: as §1

[3] = compound: CO[C@H]1C[C@@H]2CC[C@@H](C)[C@@](O)(O2)C(=O)C(=O)N2CCCC[C@H]2C(=O)O[C@H]([C@H](C)C[C@@H]2CC[C@H](n3cnnn3)[C@H](OC)C2)CC(=O)[C@H](C)/C=C(\C)[C@@H](O)[C@@H](OC)C(=O)[C@H](C)C[C@H](C)/C=C/C=C/C=C/1C [zotarolimus]
Summary of the method: as §1

[4] = compound: COc1cc(C(=O)O)ccc1NC(=O)[C@@H]1N[C@@H](CC(C)(C)C)[C@](C#N)(c2ccc(Cl)cc2F)[C@H]1c1cccc(Cl)c1F [idasanutlin]
Summary of the method: as §1

[5] = compound: COc1cc(Nc2ncc3c(n2)-c2ccc(Cl)cc2C(c2c(F)cccc2OC)=NC3)ccc1C(=O)O [alisertib]
Summary of the method: as §1

[6] = compound: COc1cc2nc(-c3cc(F)ccc3O)nc(N[C@@H]3CNC[C@H]3C(C)(C)O)c2cc1OC
Summary of the method: as §1

[7] = compound: COc1cc2ncnc(Nc3ccc(F)c(Cl)c3)c2cc1OCCCN1CCOCC1 [gefitinib]
Summary of the method: as §1

[8] = compound: COc1cccc2cc(-c3nc([C@H]4CC[C@H](C(=O)O)CC4)n4ncnc(N)c34)[nH]c12
Summary of the method: as §1

[9] = compound: CS(=O)(=O)CCNCc1ccc(-c2ccc3ncnc(Nc4ccc(OCc5cccc(F)c5)c(Cl)c4)c3c2)o1 [lapatinib]
Summary of the method: as §1

[10] = compound: CS(=O)(=O)c1ccc(-c2cnc(N)c(C(=O)Nc3ccccc3)n2)cc1
Summary of the method: as §1

[11] = compound: C[C@@H](Oc1cc(-c2cnn(C3CCNCC3)c2)cnc1N)c1c(Cl)ccc(F)c1Cl [crizotinib]
Summary of the method: as §1

[12] = compound: C[C@@H]1COCCN1C2=NC(=NC(=C2)C3(CC3)S(=O)(=O)C)C4=C5C=CNC5=CC=C4
Summary of the method: as §1

[13] = compound: C[C@H](C1=CC=C(C=C1)C(=O)NC2=C3C=CNC3=NC=C2)N
Summary of the method: as §1

[14] = compound: C[C@H](Nc1ncnc2nc[nH]c12)c1cc2cccc(Cl)c2c(=O)n1-c1ccccc1 [duvelisib]
Summary of the method: as §1

[15] = compound: Cc1cc(Nc2cc(N3CCN(C)CC3)nc(Sc3ccc(NC(=O)C4CC4)cc3)n2)n[nH]1 [tozasertib]
Summary of the method: as §1

[16] = compound: Cc1cc(SCc2sc(-c3ccc(C(F)(F)F)cc3)nc2C)ccc1OCC(=O)O
Summary of the method: as §1

[17] = compound: Cc1ccc(-n2nc(C(C)(C)C)cc2NC(=O)Nc2ccc(OCCN3CCOCC3)c3ccccc23)cc1 [doramapimod]
Summary of the method: as §1

[18] = compound: Cc1ccc(C(=O)N(CCCN)[C@@H](c2nc3cc(Cl)ccc3c(=O)n2Cc2ccccc2)C(C)C)cc1 [ispinesib]
Summary of the method: as §1

[19] = compound: Cc1cc(Nc2cc(CN3CCOCC3)c3nc(C)c(Cc4ccc(Cl)cc4F)n3n2)n[nH]1 [gandotinib]
Summary of the method: as §1

[20] = compound: CS(=O)(=O)N1CCN(Cc2cc3nc(-c4cccc5[nH]ncc45)nc(N4CCOCC4)c3s2)CC1 [pictilisib]
Summary of the method: as §1

Target	log2 fold change [1]	log2 fold change [2]	log2 fold change [3]	log2 fold change [4]	log2 fold change [5]	log2 fold change [6]	log2 fold change [7]	log2 fold change [8]	log2 fold change [9]	log2 fold change [10]	log2 fold change [11]	log2 fold change [12]	log2 fold change [13]	log2 fold change [14]	log2 fold change [15]	log2 fold change [16]	log2 fold change [17]	log2 fold change [18]	log2 fold change [19]	log2 fold change [20]
COL15A1 (UniProt P39059)	inactive: 0.055	inactive: -0.005	inactive: -0.018	inactive: -0.055	inactive: -0.085	inactive: 0.05	inactive: 0.02	inactive: 0.067	inactive: 0.14	inactive: 0.11	inactive: -0.064	inactive: -0.054	inactive: -0.109	inactive: -0.321	inactive: 0.033	inactive: 0.066	inactive: 0.062	inactive: -0.137		
CLINT1 isoform 3 (UniProt Q14677)	inactive: -0.159	inactive: 0.155	inactive: -0.031	inactive: 0	inactive: -0.105	inactive: 0.074	inactive: 0.148	inactive: -0.041	inactive: 0.014	inactive: -0.019	inactive: 0.02		inactive: 0.159			inactive: -0.097	inactive: 0.012	inactive: -0.001	inactive: 0.047	
CLPP (UniProt Q16740)	inactive: -0.03	inactive: -0.017	inactive: 0	inactive: -0.038	inactive: -0.091	inactive: 0.011	inactive: 0.01	inactive: 0.021	inactive: -0.034	inactive: 0.05	active: 0.348	inactive: 0.058	inactive: -0.025			inactive: 0.017	inactive: 0.003	inactive: 0.105	inactive: 0.008	
CLASP1 (UniProt Q7Z460)	inactive: 0.03	inactive: 0.117	inactive: 0.006	inactive: -0.032	inactive: -0.047	inactive: 0.173	inactive: 0.017	inactive: 0	inactive: -0.011	inactive: -0.034	inactive: -0.294	inactive: 0.1	inactive: 0.153	inactive: -0.03	inactive: -0.064	inactive: 0.071	inactive: 0.007	inactive: -0.117	inactive: -0.261	
CLTA isoform 2 (UniProt P09496)	inactive: -0.041	inactive: -0.01	inactive: -0.048	inactive: 0	inactive: -0.079	inactive: -0.008	inactive: -0.02	inactive: -0.004	inactive: 0.008	inactive: -0.032	inactive: -0.004	inactive: -0.029	inactive: 0.007	inactive: -0.08	inactive: -0.033	inactive: -0.101	inactive: 0.058	inactive: -0.014	inactive: -0.048	
CLTB (UniProt P09497)	active: 0.263	inactive: -0.053	inactive: -0.006	inactive: -0.02	inactive: -0.106	inactive: 0	inactive: 0.017	inactive: 0.028	inactive: -0.014	inactive: -0.058	inactive: 0.007	inactive: -0.004	inactive: -0.047			inactive: -0.056	inactive: -0.012	inactive: 0.085	inactive: 0.026	
CHPF (UniProt Q8IZ52)	inactive: -0.096	inactive: -0.04	inactive: -0.01	inactive: 0.304	inactive: -0.077	inactive: -0.132	inactive: 0.161	inactive: -0.025	inactive: 0.066	inactive: -0.067	inactive: 0.157	inactive: -0.114	inactive: -0.017	inactive: 0.029	inactive: -0.07	inactive: 0.065	inactive: 0.257	inactive: -0.137		
CIR1 (UniProt Q86X95)	inactive: -0.022	inactive: 0.247	inactive: -0.064	inactive: 0.161	inactive: -0.081	inactive: -0.019		inactive: -0.024	inactive: 0.078	inactive: -0.039	inactive: 0.03	inactive: -0.187	active: 0.544			inactive: 0.015	inactive: 0.092	inactive: -0.063	inactive: 0.295	inactive: -0.365
CHST2 (UniProt Q9Y4C5)	inactive: 0.017	inactive: 0.234	inactive: -0.042	inactive: -0.162	inactive: -0.061	inactive: 0.076	inactive: 0.143	inactive: -0.129	inactive: 0.078	inactive: 0.186	inactive: 0.004	inactive: -0.236	inactive: -0.03	inactive: -0.079	inactive: 0.053	inactive: 0.165	inactive: 0.074			
CLCN3 isoform 2 (UniProt P51790)	inactive: 0.057	inactive: -0.151	inactive: -0.031	inactive: -0.008	inactive: 0.03	inactive: -0.064	inactive: -0.015	inactive: 0.04	inactive: 0.008	inactive: -0.008	inactive: -0.074	inactive: 0.09	inactive: -0.142			inactive: -0.011	inactive: 0.009	inactive: -0.25	inactive: 0.02	
CMTM6 (UniProt Q9NX76)	inactive: -0.105	inactive: 0.105	inactive: -0.095	inactive: -0.052	inactive: -0.161	inactive: 0.12	inactive: 0.051	inactive: 0.031	inactive: -0.076	inactive: 0.03	inactive: 0.119	inactive: 0.103	inactive: -0.099	inactive: 0.231	inactive: 0.017	inactive: -0.072	inactive: 0.108	inactive: 0.151		
CLASP2 isoform 3 (UniProt O75122)	inactive: 0.021	inactive: 0.068	inactive: 0.033	inactive: -0.024	inactive: -0.021	inactive: 0.055	inactive: -0.002	inactive: 0.003	inactive: -0.009	inactive: -0.035	inactive: -0.201	inactive: 0.044	inactive: -0.029			inactive: 0.074	inactive: -0.007	inactive: -0.054	active: -0.314	
CLIC1 (UniProt O00299)	inactive: -0.014	inactive: -0.029	inactive: 0.037	inactive: -0.006	inactive: -0.069	inactive: 0.005	inactive: -0.013	inactive: -0.011	inactive: -0.018	inactive: 0.011	inactive: 0.079	inactive: 0.05	inactive: -0.053	inactive: 0.013	inactive: 0.003	inactive: 0	inactive: -0.072	inactive: 0.096	inactive: -0.018	
CLIP1 isoform 1 (UniProt P30622)	inactive: -0.046	inactive: -0.02	inactive: -0.01	inactive: 0.011	inactive: -0.018	inactive: 0.031	inactive: 0.008	inactive: 0.024	inactive: -0.029	inactive: -0.001	inactive: 0.039	inactive: 0.003	inactive: -0.066	inactive: 0.001	inactive: 0.004	inactive: -0.012	inactive: -0.006	inactive: 0.034	inactive: -0.012	
CNIH4 (UniProt Q9P003)	inactive: 0.175	inactive: 0	inactive: -0.034	inactive: -0.16	inactive: -0.016	inactive: 0.066	inactive: 0.054	inactive: -0.043	inactive: -0.051	inactive: 0.021	inactive: -0.111		inactive: -0.143	inactive: 0.162	inactive: 0	inactive: -0.057	inactive: -0.012	inactive: 0.012		
CLSPN (UniProt Q9HAW4)	inactive: -0.076	inactive: 0.053	inactive: -0.034	inactive: 0.107	inactive: 0.004	inactive: -0.111	inactive: -0.019	inactive: -0.018	inactive: 0.053	inactive: -0.028	inactive: 0.039	inactive: -0.04	inactive: -0.046			inactive: -0.104	inactive: 0.001	inactive: 0.107	inactive: 0.047	
CLPTM1L (UniProt Q96KA5)	inactive: -0.053	inactive: -0.114	inactive: -0.095	inactive: -0.141	inactive: -0.032	inactive: -0.08	inactive: -0.007	inactive: 0.065	inactive: -0.02	inactive: 0.036	inactive: -0.08	inactive: 0.025	inactive: -0.013			inactive: 0	inactive: -0.012	active: -0.326	active: -0.268	
CLUH (UniProt O75153)	inactive: -0.026	inactive: 0.07	inactive: 0.028	inactive: -0.074	inactive: -0.072	inactive: -0.022	inactive: -0.001	inactive: -0.152	inactive: 0.006	inactive: -0.001	inactive: -0.094	active: 0.348	inactive: 0.094	active: 0.698		inactive: 0.01	inactive: 0.02	inactive: 0.043	inactive: -0.037	

Laid out differently: entries from further up.
Target,log2 fold change [1],log2 fold change [2],log2 fold change [3],log2 fold change [4],log2 fold change [5],log2 fold change [6],log2 fold change [7],log2 fold change [8],log2 fold change [9],log2 fold change [10],log2 fold change [11],log2 fold change [12],log2 fold change [13],log2 fold change [14],log2 fold change [15],log2 fold change [16],log2 fold change [17],log2 fold change [18],log2 fold change [19],log2 fold change [20]
CLPTM1L (UniProt Q96KA5),inactive: -0.053,inactive: -0.114,inactive: -0.095,inactive: -0.141,inactive: -0.032,inactive: -0.08,inactive: -0.007,inactive: 0.065,inactive: -0.02,inactive: 0.036,inactive: -0.08,inactive: 0.025,inactive: -0.013,,,inactive: 0,inactive: -0.012,active: -0.326,active: -0.268,
CLUH (UniProt O75153),inactive: -0.026,inactive: 0.07,inactive: 0.028,inactive: -0.074,inactive: -0.072,inactive: -0.022,inactive: -0.001,inactive: -0.152,inactive: 0.006,inactive: -0.001,inactive: -0.094,active: 0.348,inactive: 0.094,active: 0.698,,inactive: 0.01,inactive: 0.02,inactive: 0.043,inactive: -0.037,

From the supplement of paper PMC10849652
